# In all, about 390,000 compounds went through this assay and about 820 (0.21%) were called active. The shares of active, inactive and inconclusive entries below differ from those in the screen. Calls come from the whole dose curve; as a rule, active = well fitted inhibition curve with a large enough effect; inconclusive = small, poorly fitted or top-dose-only effect, or another doubt; inactive = no such curve, though single readings can be large or run the other way. A potency beside an inconclusive call is a rough fit, not a confirmed value.
# Protein sequences, listed by entry. Tags and fused reporters are not part of them.
# UniProt Q92830, whole entry, looked up: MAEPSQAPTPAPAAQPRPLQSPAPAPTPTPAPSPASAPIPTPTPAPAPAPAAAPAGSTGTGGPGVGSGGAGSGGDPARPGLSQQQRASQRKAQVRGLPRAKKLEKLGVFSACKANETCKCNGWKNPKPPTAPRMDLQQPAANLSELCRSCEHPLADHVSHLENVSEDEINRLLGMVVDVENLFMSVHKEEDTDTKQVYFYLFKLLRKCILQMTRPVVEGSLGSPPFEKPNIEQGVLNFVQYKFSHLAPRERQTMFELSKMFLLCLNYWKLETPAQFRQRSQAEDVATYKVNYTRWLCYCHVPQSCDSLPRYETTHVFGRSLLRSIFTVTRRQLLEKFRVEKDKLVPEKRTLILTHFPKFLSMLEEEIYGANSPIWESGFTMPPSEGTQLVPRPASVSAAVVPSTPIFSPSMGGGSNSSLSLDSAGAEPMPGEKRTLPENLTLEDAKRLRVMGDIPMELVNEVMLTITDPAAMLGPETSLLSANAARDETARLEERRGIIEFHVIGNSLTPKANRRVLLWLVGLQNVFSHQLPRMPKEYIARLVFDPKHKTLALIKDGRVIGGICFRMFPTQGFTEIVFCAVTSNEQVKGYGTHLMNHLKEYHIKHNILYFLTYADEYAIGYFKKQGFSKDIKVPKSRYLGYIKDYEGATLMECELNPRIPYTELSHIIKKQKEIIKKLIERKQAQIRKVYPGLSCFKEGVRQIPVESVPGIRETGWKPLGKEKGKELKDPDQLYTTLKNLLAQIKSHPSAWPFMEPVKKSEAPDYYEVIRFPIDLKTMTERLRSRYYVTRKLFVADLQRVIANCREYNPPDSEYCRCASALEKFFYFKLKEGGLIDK
# Molecular target: Histone acetyltransferase KAT2A (Homo sapiens) (UniProt Q92830)
# Experiment: qHTS Assay for Inhibitors of GCN5L2
# Settings: GCN5L2 HAT assay, ThioGlo1 CoA-SH fluorescence; activity change, negative = inhibition: at 58.9 µM (top of the series) unless noted
# Procedure, shortened: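 Fluorescence readout, Ex340nm/Em540nm: ThioGlo1 (50uM final) reacts with free CoA thiol released as 20nM GCN5L2 acetylates H3(1-25) peptide (75uM) using acetyl-CoA (70uM). Compound and enzyme sat 15 min beforehand; 20 min room-temperature reaction.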
# % is set by controls: 0 for no effect and ±100 for the full control effect; potency is the fitted concentration of half-maximal effect.
SMILES,Potency,"activity change, negative = inhibition"
Nc1ccccc1Oc1ncc(C(F)(F)F)cc1Cl,"inconclusive: 5.62 µM [inhibitor, partial curve]",–
COc1ccccc1C(=O)NCc1ccccc1,–,inactive: -1.42%
CN(C)CCNc1ncnc2c1sc1nc(N3CCOCC3)c3c(c12)CC(C)(C)SC3,"inconclusive: 0.891 µM [inhibitor, full curve, poor fit]",–
O=C1c2cnc3nc(SCc4ccccc4)nn3c2CC2c3ccccc3CCN12 (stereo not given),–,inactive: -2.71%
CCCNc1nc(Nc2ccc(C)c(Cl)c2)c2cnn(C)c2n1,–,inactive: -10.9%
Cc1ccccc1OCC(O)CN(Cc1ccccc1O)C1CCCCC1 (stereo not given),–,inactive: -11.2%
CC(=O)C1=C(C)Nc2ncnn2C1c1ccccc1 (stereo not given),"inconclusive: 0.631 µM [inhibitor, partial curve, poor fit]",–
CN(Cc1ccccc1)C(=O)c1ccco1,–,inactive: -6.63%
CCCSC1=N/C(=C\c2ccsc2)C(=O)S1,"inconclusive: 39.8 µM [inhibitor, single point]",–
COC(=O)c1c(NC(=O)CSc2nnnn2-c2ccccc2)sc2c1CCC(C)C2 (stereo not given),"inconclusive: 7.94 µM [inhibitor, single point]",–
S=c1[nH]nc(-c2cc3c(s2)-c2ccccc2CC3)o1,"inconclusive: 22.4 µM [inhibitor, partial curve]",–
CCOc1ccc(NC(=O)CSC2=Nc3ccccc3C3=NC(CC(=O)NCc4ccco4)C(=O)N23)cc1 (stereo not given),–,inactive: -2.99%
O=C(Nc1ccc(F)c([N+](=O)[O-])c1)c1ccc2c(c1)C(=O)OC2=O,"inconclusive: 25.1 µM [inhibitor, single point]",–
Cc1ccc(NC(=O)c2cc(Cl)nc3ccccc23)cc1,–,inactive: -2.2%
CCNC(=S)NNC(=O)c1cc(C)on1,"inconclusive: 6.31 µM [inhibitor, single point]",–
COC(=O)c1ccc(NC(=O)c2sc3nc(-c4ccccc4)cn3c2C)cc1,–,inactive: -9.68%
CCN(CC)S(=O)(=O)c1cccc(-c2n[nH]c(=S)n2/N=C/c2ccc(C(=O)OC)cc2)c1,"inconclusive: 39.8 µM [inhibitor, single point]",–
Cc1c(O)c(CN2CCCC2)cc2c3c(c(=O)oc12)CCC3,"inconclusive: 28.2 µM [inhibitor, partial curve]",–
Cc1cccc(Nc2nnc(-c3ccc(N4CCOCC4)c([N+](=O)[O-])c3)c3ccccc23)c1,–,inactive: -11.4%
CC(/C=N\NC(=O)c1ccc2c(c1)OCO2)c1ccccc1 (stereo not given),"inconclusive: 3.16 µM [inhibitor, partial curve]",–
O=C(c1nn2c(C(F)(F)F)cc(-c3ccccc3)nc2c1Cl)N1CCN2CCCC2C1 (stereo not given),"inconclusive: 5.62 µM [inhibitor, full curve, poor fit]",–
CN(C(=O)CN1C(=O)CCSc2ccc(S(=O)(=O)N3CCCC3)cc21)c1ccccc1,"inconclusive: 22.4 µM [inhibitor, single point]",–
CCOc1ccc(NC(=O)C2CCCN(S(=O)(=O)c3c(C)noc3/C=C/N(C)C)C2)cc1 (stereo not given),–,inactive: -12.1%

SMILES,Potency,"activity change, negative = inhibition"
CC(=O)c1ccccc1NC(=O)CCNC(=O)c1ccco1,"inconclusive: 31.6 µM [inhibitor, single point]",–
COc1ccc(C(=O)NCCc2ccc(C)cc2)cc1OC1CCN(C(C)=O)CC1,"inconclusive: 0.1 µM [inhibitor, full curve, poor fit]",–
O=C(CSc1nnc(-c2ccccc2)o1)Nc1ccccc1F,"inconclusive: 3.98 µM [inhibitor, single point]",–
CC(C)COc1ccc(-c2nn(-c3ccccc3)cc2/C=C2/SC(=S)N(CC(=O)O)C2=O)cc1,"inconclusive: 35.5 µM [inhibitor, single point]",–
CC(=O)c1ccc(Nc2ccc([N+](=O)[O-])c3nonc23)cc1,"inconclusive: 3.55 µM [inhibitor, partial curve]",–
COC(=O)[C@H](CCSC)NC(=O)c1cc2c(cn1)[nH]c1ccccc12,"inconclusive: 31.6 µM [inhibitor, single point]",–
COc1ccc(-c2nnc(NC(=O)c3ccc([N+](=O)[O-])o3)o2)c(OC)c1,"inconclusive: 3.55 µM [inhibitor, partial curve, poor fit]",–
CCOC(=O)c1sc(=NC(=O)CCS(=O)(=O)c2ccccc2)n(C)c1C,"inconclusive: 14.1 µM [inhibitor, partial curve]",–
CCOC(=O)CSCC(=O)N1N=C(c2cccs2)CC1c1ccc(F)cc1 (stereo not given),"inconclusive: 39.8 µM [inhibitor, single point]",–
Cc1nc2ccc(Br)cn2c1C(=O)N/N=C\c1ccc(C(C)C)cc1,–,inactive: -14.9%
Cc1ccc(NC2=C/C(=N/S(=O)(=O)c3cccs3)c3ccccc3C2=O)cc1,–,inactive: -4.17%
COc1cccc(C(=O)Nc2cc3c4c(c2)CC(=O)N4CCC3)c1,"inconclusive: 28.2 µM [inhibitor, single point]",–
COc1ccccc1NS(=O)(=O)c1ccc(C)c(C(=O)NCC(c2ccco2)N2CCCCC2)c1 (stereo not given),"inconclusive: 3.16 µM [inhibitor, full curve]",–
NCCCCCCNc1nc2c(N)ncnc2n1[C@@H]1O[C@@H]2COP(=O)(O)O[C@H]2[C@H]1O,–,inactive: 16.8%
CCCc1nc2ccccc2n1CC(O)COc1ccc(C(=O)OC)cc1 (stereo not given),–,inactive: -3.33%
COCCN(Cc1ccccc1)C(=O)c1cc(-c2ccc(OC)c(OC)c2)nc2ccccc12,–,inactive: -16.6%
Cc1ccc(OCC(=O)NCC2(N(C)C)CCCCC2)cc1C,–,inactive: -9.22%
COc1ccc(/C=C/C(=O)c2c(C)nc3ccccn23)cc1,"inconclusive: 0.891 µM [inhibitor, partial curve, poor fit]",–
CC(=O)Nc1ccc(O)c(-c2nc3ccccc3s2)c1,"inconclusive: 39.8 µM [inhibitor, single point]",–
CC(c1ccccc1)n1cc2c(c1-c1ccccc1Br)c(=O)n(C)c(=O)n2C (stereo not given),–,inactive: -4.12%
CCCN(CCC)CCCNC(=O)c1cc2cc3ccc(OC)cc3nc2o1,"inconclusive: 0.631 µM [inhibitor, single point]",–
O=C(N/N=C/C=C/c1ccco1)c1ccncc1,"inconclusive: 6.31 µM [inhibitor, single point]",–

# Entries shown so far that contain an aryl thioether with sulfur outside any ring (3):
SMILES,Potency,"activity change, negative = inhibition"
O=C1c2cnc3nc(SCc4ccccc4)nn3c2CC2c3ccccc3CCN12 (stereo not given),–,inactive: -2.71%
COC(=O)c1c(NC(=O)CSc2nnnn2-c2ccccc2)sc2c1CCC(C)C2 (stereo not given),"inconclusive: 7.94 µM [inhibitor, single point]",–
O=C(CSc1nnc(-c2ccccc2)o1)Nc1ccccc1F,"inconclusive: 3.98 µM [inhibitor, single point]",–
